Assay results taken from PMC11576389.
These are yes or no findings as the source states them, for the method shown. A result given as binding can be weak or reduced; the word gives no strength.

The chains behind the UniProt entries cited, without tags or fusion partners. Where a name states a change or a piece, a line headed by the entry shows the natural chain unless it says otherwise. Residues count along the entry.
UniProt P14780: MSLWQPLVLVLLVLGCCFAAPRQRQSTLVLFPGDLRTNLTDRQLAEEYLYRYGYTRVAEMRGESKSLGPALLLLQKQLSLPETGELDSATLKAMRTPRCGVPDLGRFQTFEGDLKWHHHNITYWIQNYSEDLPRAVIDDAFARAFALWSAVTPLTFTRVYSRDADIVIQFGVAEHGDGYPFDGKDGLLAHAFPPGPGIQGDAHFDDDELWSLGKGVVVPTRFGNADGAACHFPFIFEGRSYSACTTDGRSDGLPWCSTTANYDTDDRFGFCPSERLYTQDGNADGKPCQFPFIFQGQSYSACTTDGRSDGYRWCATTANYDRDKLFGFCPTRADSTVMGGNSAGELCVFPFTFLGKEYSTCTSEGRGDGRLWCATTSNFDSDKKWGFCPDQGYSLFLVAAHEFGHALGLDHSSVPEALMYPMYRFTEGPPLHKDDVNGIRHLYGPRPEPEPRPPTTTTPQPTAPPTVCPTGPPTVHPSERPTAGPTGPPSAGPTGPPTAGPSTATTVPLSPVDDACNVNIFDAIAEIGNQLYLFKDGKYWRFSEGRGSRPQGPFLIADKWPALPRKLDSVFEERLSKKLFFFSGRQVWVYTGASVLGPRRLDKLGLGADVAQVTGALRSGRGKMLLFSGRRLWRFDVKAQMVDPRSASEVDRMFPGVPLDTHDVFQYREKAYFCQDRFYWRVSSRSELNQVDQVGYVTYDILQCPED
UniProt P01033, residues 24-207: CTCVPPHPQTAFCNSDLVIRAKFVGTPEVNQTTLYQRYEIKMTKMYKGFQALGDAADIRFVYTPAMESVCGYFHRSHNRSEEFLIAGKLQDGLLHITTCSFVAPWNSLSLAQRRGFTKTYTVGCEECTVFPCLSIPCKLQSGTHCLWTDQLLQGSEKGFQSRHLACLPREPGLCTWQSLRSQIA

Tests used:
[1] = biological target: matrix metalloproteinase-9 (MMP-9) (human (endogenous in monocyte-derived macrophages)) (UniProt P14780); experiment: ELISA; MMP-9 complexed by TIMP-1 measured in cell lysates of M(LPS/IFN-γ) and M(IL-4) (Figure S5); the only method the paper names for the complex is the Human MMP-9/TIMP-1 DuoSet ELISA
[2] = biological target: matrix metalloproteinase-9 (MMP-9) (human (endogenous in monocyte-derived macrophages)) (UniProt P14780); experiment: ELISA; sandwich ELISA for the MMP-9/TIMP-1 complex (Human MMP-9/TIMP-1 DuoSet ELISA, R&D Systems DY1449) on cell culture supernatants of M(M-CSF), M(LPS/IFN-γ) and M(IL-4), according to the manufacturer's protocol

Q: What does the source list for “tissue inhibitor of metalloproteinases-1 (TIMP-1) (from UniProt P01033 24-207)”?
A: binding [1]: binds; binding [2]: binds
